No constants are given. Whether binding was seen depends on the method and setting. Binding seen in cells or lysates may run through a third protein. Some entries that bind do so weakly or less than the wild type.
Target: p53 (rat (endogenous in primary rat hepatocytes)) (UniProt P10361)
Experiment: co-IP; cytoplasmic protein extract of primary rat hepatocytes; IP with anti-p53 (non-specific IgG as control), blot for p53 and AKT1; cells transfected with AV-CTR or AV-IGF-1 and treated or not with H2O2 (200 nM) for 24 h

By UniProt entry, the sequences of proteins in these tests, tags left out.
UniProt P10361: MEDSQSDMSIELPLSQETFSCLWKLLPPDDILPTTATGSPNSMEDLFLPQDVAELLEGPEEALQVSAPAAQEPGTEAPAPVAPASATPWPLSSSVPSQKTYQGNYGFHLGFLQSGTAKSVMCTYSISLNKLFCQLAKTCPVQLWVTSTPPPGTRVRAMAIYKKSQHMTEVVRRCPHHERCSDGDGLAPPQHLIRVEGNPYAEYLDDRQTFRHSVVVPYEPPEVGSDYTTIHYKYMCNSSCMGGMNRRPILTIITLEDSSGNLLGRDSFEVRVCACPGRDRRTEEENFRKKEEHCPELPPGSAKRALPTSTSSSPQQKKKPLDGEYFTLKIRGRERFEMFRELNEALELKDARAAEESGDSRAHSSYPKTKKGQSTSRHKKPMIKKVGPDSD
UniProt P47196: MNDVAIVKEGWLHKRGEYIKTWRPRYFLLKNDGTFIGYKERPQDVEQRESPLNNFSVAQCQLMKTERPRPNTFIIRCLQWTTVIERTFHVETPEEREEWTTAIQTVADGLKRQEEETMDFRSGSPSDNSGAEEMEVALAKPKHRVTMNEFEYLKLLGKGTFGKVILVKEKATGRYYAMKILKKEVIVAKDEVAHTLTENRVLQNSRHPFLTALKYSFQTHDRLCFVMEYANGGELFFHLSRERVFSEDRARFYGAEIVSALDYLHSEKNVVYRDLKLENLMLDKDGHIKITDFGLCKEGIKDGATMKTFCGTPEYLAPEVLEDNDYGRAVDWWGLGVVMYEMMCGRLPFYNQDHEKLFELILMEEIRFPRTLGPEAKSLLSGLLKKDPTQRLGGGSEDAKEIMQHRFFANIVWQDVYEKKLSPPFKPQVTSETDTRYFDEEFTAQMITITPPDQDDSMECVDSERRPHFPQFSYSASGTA

AKT1 (from UniProt P47196 1-480)
binding: binds

From PMC6554350
